Test results reported in the supplement of paper PMC8728848.
The other results are listed elsewhere or left out.

How the values were obtained:
Assay in all cases: glycan array binding signal (z-score within array); higher = stronger binding
Details in all cases: glycan notation: IUPAC condensed, linker removed
[1] = biological target: Fuc(a1-2)Gal
Summary of the method: (§1)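 Arrays were curated from the Consortium for Functional Glycomics database, 3228 in total, and kept only where the protein sequence was available. Binding is expressed as a within-array Z-score. This score was averaged across arrays of the same protein sequence at different concentrations or buffers and across linkers, and negative values can be read as non-binding.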

[2] = biological target: Fuc(a1-2)Gal(b1-3)GalNAc
Summary of the method: as §1

[3] = biological target: Fuc(a1-2)Gal(b1-3)GalNAc(a1-3)[Fuc(a1-2)]Gal(b1-4)Glc
Summary of the method: as §1

[4] = biological target: Fuc(a1-2)Gal(b1-3)GalNAc(a1-3)[Fuc(a1-2)]Gal(b1-4)GlcNAc
Summary of the method: as §1

[5] = biological target: Fuc(a1-2)Gal(b1-3)GalNAc(b1-3)Gal
Summary of the method: as §1

[6] = biological target: Fuc(a1-2)Gal(b1-3)GalNAc(b1-3)Gal(a1-4)Gal(b1-4)Glc
Summary of the method: as §1

[7] = biological target: Fuc(a1-2)Gal(b1-3)GalNAc(b1-4)[Neu5Ac(a2-3)]Gal(b1-4)Glc
Summary of the method: as §1

[8] = biological target: Fuc(a1-2)Gal(b1-3)GlcNAc
Summary of the method: as §1

[9] = biological target: Fuc(a1-2)Gal(b1-3)GlcNAc(b1-2)Man(a1-3)[Fuc(a1-2)Gal(b1-3)GlcNAc(b1-2)Man(a1-6)]Man(b1-4)GlcNAc(b1-4)GlcNAc
Summary of the method: as §1

[10] = biological target: Fuc(a1-2)Gal(b1-3)GlcNAc(b1-2)Man(a1-3)[Fuc(a1-2)Gal(b1-3)GlcNAc(b1-2)Man(a1-6)]Man(b1-4)GlcNAc(b1-4)[Fuc(a1-6)]GlcNAc
Summary of the method: as §1

[11] = biological target: Fuc(a1-2)Gal(b1-3)GlcNAc(b1-3)Gal(b1-4)Glc
Summary of the method: as §1

[12] = biological target: Fuc(a1-2)Gal(b1-3)GlcNAc(b1-3)GalNAc
Summary of the method: as §1

[13] = biological target: Fuc(a1-2)Gal(b1-3)GlcNAc(b1-3)[Fuc(a1-2)Gal(b1-3)GlcNAc(b1-6)]GalNAc
Summary of the method: as §1

[14] = biological target: Fuc(a1-2)Gal(b1-3)GlcNAc(b1-3)[Gal(b1-4)GlcNAc(b1-6)]Gal(b1-4)Glc
Summary of the method: as §1

[15] = biological target: Fuc(a1-2)Gal(b1-3)GlcNAc(b1-3)[Neu5Ac(a2-6)Gal(b1-4)GlcNAc(b1-6)]Gal(b1-4)Glc
Summary of the method: as §1

[16] = biological target: Fuc(a1-2)Gal(b1-3)GlcNAc6S
Summary of the method: as §1

[17] = biological target: Fuc(a1-2)Gal(b1-3)[Fuc(a1-4)]GlcNAc
Summary of the method: as §1

[18] = biological target: Fuc(a1-2)Gal(b1-3)[Fuc(a1-4)]GlcNAc(b1-2)Man(a1-3)[Fuc(a1-2)Gal(b1-3)[Fuc(a1-4)]GlcNAc(b1-2)Man(a1-3)]Man(b1-4)GlcNAc(b1-4)GlcNAc
Summary of the method: as §1

[19] = biological target: Fuc(a1-2)Gal(b1-3)[Fuc(a1-4)]GlcNAc(b1-2)Man(a1-3)[Fuc(a1-2)Gal(b1-3)[Fuc(a1-4)]GlcNAc(b1-2)Man(a1-6)]Man(b1-4)GlcNAc(b1-4)[Fuc(a1-6)]GlcNAc(b1-4)[Fuc(a1-6)]GlcNAc
Summary of the method: as §1

[20] = biological target: Fuc(a1-2)Gal(b1-3)[Fuc(a1-4)]GlcNAc(b1-3)[Fuc(a1-3)[Gal(b1-4)]GlcNAc(b1-6)]Gal(b1-4)Glc
Summary of the method: as §1

[21] = biological target: Fuc(a1-2)Gal(b1-3)[Fuc(a1-4)]GlcNAc(b1-3)[Gal(b1-4)GlcNAc(b1-6)]Gal(b1-4)Glc
Summary of the method: as §1

[22] = biological target: Fuc(a1-2)Gal(b1-4)Fuc(a1-3)]GlcNAc(b1-2)Man(a1-3)[Fuc(a1-2)Gal(b1-4)[Fuc(a1-3)]GlcNAc(b1-2)Man(a1-6)]Man(b1-4)GlcNAc(b1-4)GlcNAc
Summary of the method: as §1

[23] = biological target: Fuc(a1-2)Gal(b1-4)Glc
Summary of the method: as §1

[24] = biological target: Fuc(a1-2)Gal(b1-4)Glc6S
Summary of the method: as §1

[25] = biological target: Fuc(a1-2)Gal(b1-4)GlcNAc
Summary of the method: as §1

[26] = biological target: Fuc(a1-2)Gal(b1-4)GlcNAc(b1-2)Man
Summary of the method: as §1

[27] = biological target: Fuc(a1-2)Gal(b1-4)GlcNAc(b1-2)Man(a1-3)[Fuc(a1-2)Gal(b1-4)GlcNAc(b1-2)Man(a1-6)]Man(b1-4)GlcNAc(b1-4)GlcNAc
Summary of the method: as §1

[28] = biological target: Fuc(a1-2)Gal(b1-4)GlcNAc(b1-2)Man(a1-3)[Fuc(a1-2)Gal(b1-4)GlcNAc(b1-2)Man(a1-6)]Man(b1-4)GlcNAc(b1-4)[Fuc(a1-6)]GlcNAc
Summary of the method: as §1

[29] = biological target: Fuc(a1-2)Gal(b1-4)GlcNAc(b1-2)[Fuc(a1-2)Gal(b1-4)GlcNAc(b1-4)]Man(a1-3)[Fuc(a1-2)Gal(b1-4)GlcNAc(b1-2)Man(a1-6)]Man(b1-4)GlcNAc(b1-4)GlcNAc
Summary of the method: as §1

[30] = biological target: Fuc(a1-2)Gal(b1-4)GlcNAc(b1-3)Gal(b1-4)GlcNAc
Summary of the method: as §1

[31] = biological target: Fuc(a1-2)Gal(b1-4)GlcNAc(b1-3)Gal(b1-4)GlcNAc(b1-2)Man(a1-3)[Fuc(a1-2)Gal(b1-4)GlcNAc(b1-3)Gal(b1-4)GlcNAc(b1-2)Man(a1-6)]Man(b1-4)GlcNAc(b1-4)GlcNAc
Summary of the method: as §1

[32] = biological target: Fuc(a1-2)Gal(b1-4)GlcNAc(b1-3)Gal(b1-4)GlcNAc(b1-3)Gal(b1-4)GlcNAc
Summary of the method: as §1

[33] = biological target: Fuc(a1-2)Gal(b1-4)GlcNAc(b1-3)GalNAc
Summary of the method: as §1

[34] = biological target: Fuc(a1-2)Gal(b1-4)GlcNAc(b1-3)[Fuc(a1-2)Gal(b1-4)GlcNAc(b1-6)]GalNAc
Summary of the method: as §1

[35] = biological target: Fuc(a1-2)Gal(b1-4)GlcNAc(b1-3)[Fuc(a1-3)[Gal(b1-4)]GlcNAc(b1-6)]Gal(b1-4)Glc
Summary of the method: as §1

[36] = biological target: Fuc(a1-2)Gal(b1-4)GlcNAc(b1-6)GalNAc
Summary of the method: as §1

[37] = biological target: Fuc(a1-2)Gal(b1-4)GlcNAc6S
Summary of the method: as §1

B1: XTP3-B-MRH2 (Homo sapiens), Q96DZ1 (protein)
chain: EFLSGSYCFRGGVGWWKYEFCYGKHVHQYHEDKDSGKTSVVVGTWNQEEHIEWAKKNTARAYHLQDDGTQTVRMVSHFYGNGDICDITDKPRQVTVKLKCKESDSPHAVTVYMLEPHSCQYILGVESPVICKILDTA
glycan array binding signal (z-score) [1]: -0.773
glycan array binding signal (z-score) [2]: 0.161
glycan array binding signal (z-score) [3]: -0.747
glycan array binding signal (z-score) [4]: -1.33
glycan array binding signal (z-score) [5]: 0.18
glycan array binding signal (z-score) [6]: -0.27
glycan array binding signal (z-score) [7]: -0.108
glycan array binding signal (z-score) [8]: 0.412
glycan array binding signal (z-score) [9]: -0.458
glycan array binding signal (z-score) [10]: -1.21
glycan array binding signal (z-score) [11]: -0.618
glycan array binding signal (z-score) [12]: 0.231
glycan array binding signal (z-score) [13]: 1.04
glycan array binding signal (z-score) [14]: -1.06
glycan array binding signal (z-score) [15]: -1.29
glycan array binding signal (z-score) [16]: -0.383
glycan array binding signal (z-score) [17]: -1.05
glycan array binding signal (z-score) [18]: -0.445
glycan array binding signal (z-score) [19]: -0.47
glycan array binding signal (z-score) [20]: 2.32
glycan array binding signal (z-score) [21]: 0.411
glycan array binding signal (z-score) [22]: 2.2
glycan array binding signal (z-score) [23]: -0.632
glycan array binding signal (z-score) [24]: -0.426
glycan array binding signal (z-score) [25]: -1.08
glycan array binding signal (z-score) [26]: 0.696
glycan array binding signal (z-score) [27]: 1.67
glycan array binding signal (z-score) [28]: -0.189
glycan array binding signal (z-score) [29]: -0.58
glycan array binding signal (z-score) [30]: -0.134
glycan array binding signal (z-score) [31]: 0.06
glycan array binding signal (z-score) [32]: 0.574
glycan array binding signal (z-score) [33]: -0.57
glycan array binding signal (z-score) [34]: 1.07
glycan array binding signal (z-score) [35]: -0.248
glycan array binding signal (z-score) [36]: -0.26
glycan array binding signal (z-score) [37]: -0.458
